The results in this text go back to the supplement of paper PMC4604168 (melanoma cell lines).

The structures appear in SMILES notation. This is one part of the list. Repeats are few or missing, and single values can be far off.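 The apoptosis fraction was the count of cleaved-PARP antibody-stained nuclei relative to all DNA-stained nuclei, imaged in 1,536-well plates. Screening doses were set so most cells survived, and baseline and induced cleaved-PARP levels vary greatly across cell lines.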

This assay has as its system SkMel30. Briefly: cleaved PARP positive nuclei fraction relative to DMSO control; melanoma cells; higher = more apoptosis. The settings on record: library dose: low library concentration; 72 h.
Take `O=C(CCCCCCC(=O)Nc1ccccc1)NO` [vorinostat] + Oc1nc(-c2ccc(C(F)(F)F)cc2)nc2c1CSCC2 [XAV939] (first compound 0.08 µM, partner dose 2 µM): the “cleaved PARP positive nuclei fraction” value amounted to 29.8%. Take `COc1cc(Nc2ncc(F)c(Nc3ccc4c(n3)NC(=O)C(C)(C)O4)n2)cc(OC)c1OC` [Tamatinib] + COc1ccc(COc2ccc(Cc3cnc(N)nc3N)cc2OC)cc1 [GW2580] (first compound 0.4 µM, partner dose 1 µM): the “cleaved PARP positive nuclei fraction” value came out at 96.9%.

Turning to `Cc1nc(Nc2ncc(C(=O)Nc3c(C)cccc3Cl)s2)cc(N2CCN(CCO)CC2)n1` [dasatanib] + CCc1ccc(CCOc2ccc(CC3SC(=O)NC3=O)cc2)nc1 [pioglitazone] (first compound 0.004 µM, partner dose 2 µM), the “cleaved PARP positive nuclei fraction” value stood at 31.5%. On to `Cc1cc(N2CCOCC2)cc2[nH]c(-c3c(NC[C@@H](O)c4cccc(Cl)c4)cc[nH]c3=O)nc12` + Cn1cc(/C=C2\C(=O)Nc3cccnc32)c2ccccc21 [GW441756] (first compound 0.2 µM, partner dose 0.4 µM), for which the “cleaved PARP positive nuclei fraction” value was 131%. For the compound `O=C(CCCCCCC(=O)Nc1ccccc1)NO` [vorinostat] + O=C(O)C(=O)Nc1sc2c(c1C(=O)O)CCNC2 [TCS401] (first compound 0.08 µM, partner dose 1.66667 µM), the “cleaved PARP positive nuclei fraction” value was 87.7%. As for `OCCn1cc(-c2cnc3nnn(Cc4ccc5ncccc5c4)c3n2)cn1` + c1cc(-c2cnn3cc(-c4ccc(OCCN5CCCCC5)cc4)cnc23)ccn1 [Dorsomorphin] (first compound 1 µM, partner dose 0.4 µM), the figure is 48.8%.
